Reference: patent publication US9662360B2, “Treatment of herpes, pseudomonas, staph, and hepatitis” (priority 2008, dated 2017)
At least one structure is not confirmed: it was looked up by name or label, or the drawing left a doubt.

Tested on: RF strain of HIV-1 in CEM-SS cells
Assay: Microtiter antiviral XTT assay (inhibition of HIV-induced cell killing)
Format: cell-based
Conditions: qualitative

SMILES: Nc1ccn([C@H]2CC[C@@H](CO)O2)c(=O)n1 [ddC, dideoxycytidine]
- activity against the RF strain of HIV-1 in CEM-SS cells: expected level of activity
